Reference: the supplement of paper PMC10849652
Some of the results follow.

Chains of the proteins cited; added tags and fusions are not shown. Lines headed by an entry give the natural chain unless they say otherwise; changes in a name come on top.
UniProt P17707: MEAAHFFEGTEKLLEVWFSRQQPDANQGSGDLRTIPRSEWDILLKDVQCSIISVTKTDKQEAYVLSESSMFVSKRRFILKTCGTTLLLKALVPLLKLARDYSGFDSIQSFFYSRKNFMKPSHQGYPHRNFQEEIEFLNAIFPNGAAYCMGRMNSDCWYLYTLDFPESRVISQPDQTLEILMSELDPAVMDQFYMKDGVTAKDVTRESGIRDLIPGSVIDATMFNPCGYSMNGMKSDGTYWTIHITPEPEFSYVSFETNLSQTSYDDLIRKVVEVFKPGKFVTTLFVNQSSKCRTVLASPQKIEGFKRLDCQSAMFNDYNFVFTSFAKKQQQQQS
UniProt P31749: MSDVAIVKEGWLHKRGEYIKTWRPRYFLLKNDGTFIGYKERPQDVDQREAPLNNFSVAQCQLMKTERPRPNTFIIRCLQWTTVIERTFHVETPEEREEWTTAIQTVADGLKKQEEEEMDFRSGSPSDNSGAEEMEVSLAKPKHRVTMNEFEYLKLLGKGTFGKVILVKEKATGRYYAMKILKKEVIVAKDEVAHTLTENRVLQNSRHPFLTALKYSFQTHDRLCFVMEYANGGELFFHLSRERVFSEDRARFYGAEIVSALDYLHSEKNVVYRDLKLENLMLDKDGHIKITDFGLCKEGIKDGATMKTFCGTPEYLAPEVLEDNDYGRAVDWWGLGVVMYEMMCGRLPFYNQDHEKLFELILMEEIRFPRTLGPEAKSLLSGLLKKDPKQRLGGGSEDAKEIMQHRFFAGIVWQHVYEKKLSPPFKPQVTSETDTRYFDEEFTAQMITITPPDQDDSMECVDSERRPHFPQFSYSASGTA
UniProt Q92685: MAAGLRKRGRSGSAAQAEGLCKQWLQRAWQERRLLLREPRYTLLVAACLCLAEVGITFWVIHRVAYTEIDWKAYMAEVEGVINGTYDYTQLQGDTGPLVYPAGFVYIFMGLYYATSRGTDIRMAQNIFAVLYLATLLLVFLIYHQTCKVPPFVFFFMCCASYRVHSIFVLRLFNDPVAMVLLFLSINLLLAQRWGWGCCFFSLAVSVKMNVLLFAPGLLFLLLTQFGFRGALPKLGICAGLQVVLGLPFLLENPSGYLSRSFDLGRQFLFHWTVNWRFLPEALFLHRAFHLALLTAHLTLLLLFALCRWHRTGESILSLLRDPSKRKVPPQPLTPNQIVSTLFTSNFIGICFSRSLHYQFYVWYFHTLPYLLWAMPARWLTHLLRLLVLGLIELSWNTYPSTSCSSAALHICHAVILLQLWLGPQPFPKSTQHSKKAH
UniProt Q6P6C2: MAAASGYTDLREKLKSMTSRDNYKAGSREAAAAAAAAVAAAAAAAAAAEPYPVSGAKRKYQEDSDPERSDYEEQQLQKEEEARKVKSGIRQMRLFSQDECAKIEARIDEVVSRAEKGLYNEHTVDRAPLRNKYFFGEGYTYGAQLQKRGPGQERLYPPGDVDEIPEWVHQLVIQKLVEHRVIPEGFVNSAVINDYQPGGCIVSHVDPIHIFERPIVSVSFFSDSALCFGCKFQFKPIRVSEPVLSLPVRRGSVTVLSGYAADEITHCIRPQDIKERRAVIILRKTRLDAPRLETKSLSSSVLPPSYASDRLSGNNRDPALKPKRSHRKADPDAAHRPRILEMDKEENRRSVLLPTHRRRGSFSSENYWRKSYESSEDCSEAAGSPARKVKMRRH
UniProt Q53H80, whole entry, looked up: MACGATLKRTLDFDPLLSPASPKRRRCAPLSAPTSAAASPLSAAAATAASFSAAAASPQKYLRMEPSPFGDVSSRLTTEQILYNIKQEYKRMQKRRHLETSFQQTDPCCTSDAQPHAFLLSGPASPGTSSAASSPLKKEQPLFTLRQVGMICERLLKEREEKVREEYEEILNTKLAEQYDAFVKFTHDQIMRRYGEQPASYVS
UniProt P55263: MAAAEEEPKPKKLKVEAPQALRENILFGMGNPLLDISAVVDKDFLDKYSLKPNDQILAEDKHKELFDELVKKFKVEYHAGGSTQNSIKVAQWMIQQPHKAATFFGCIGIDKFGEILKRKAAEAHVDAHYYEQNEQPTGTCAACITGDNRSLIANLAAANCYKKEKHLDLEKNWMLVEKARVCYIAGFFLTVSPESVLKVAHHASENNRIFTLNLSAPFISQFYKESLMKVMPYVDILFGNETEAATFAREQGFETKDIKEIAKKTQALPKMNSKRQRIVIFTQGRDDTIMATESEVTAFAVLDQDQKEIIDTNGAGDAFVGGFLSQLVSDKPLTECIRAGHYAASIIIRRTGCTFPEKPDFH
UniProt O95433, whole entry, looked up: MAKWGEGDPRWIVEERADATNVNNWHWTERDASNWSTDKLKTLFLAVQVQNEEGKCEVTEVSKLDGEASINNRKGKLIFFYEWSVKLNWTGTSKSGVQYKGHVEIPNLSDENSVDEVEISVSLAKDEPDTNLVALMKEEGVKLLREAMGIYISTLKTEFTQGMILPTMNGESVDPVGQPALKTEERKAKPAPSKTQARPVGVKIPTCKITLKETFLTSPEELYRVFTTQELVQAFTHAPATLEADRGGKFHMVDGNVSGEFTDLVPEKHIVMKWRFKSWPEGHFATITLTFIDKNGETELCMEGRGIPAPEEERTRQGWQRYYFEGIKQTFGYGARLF
UniProt P49189: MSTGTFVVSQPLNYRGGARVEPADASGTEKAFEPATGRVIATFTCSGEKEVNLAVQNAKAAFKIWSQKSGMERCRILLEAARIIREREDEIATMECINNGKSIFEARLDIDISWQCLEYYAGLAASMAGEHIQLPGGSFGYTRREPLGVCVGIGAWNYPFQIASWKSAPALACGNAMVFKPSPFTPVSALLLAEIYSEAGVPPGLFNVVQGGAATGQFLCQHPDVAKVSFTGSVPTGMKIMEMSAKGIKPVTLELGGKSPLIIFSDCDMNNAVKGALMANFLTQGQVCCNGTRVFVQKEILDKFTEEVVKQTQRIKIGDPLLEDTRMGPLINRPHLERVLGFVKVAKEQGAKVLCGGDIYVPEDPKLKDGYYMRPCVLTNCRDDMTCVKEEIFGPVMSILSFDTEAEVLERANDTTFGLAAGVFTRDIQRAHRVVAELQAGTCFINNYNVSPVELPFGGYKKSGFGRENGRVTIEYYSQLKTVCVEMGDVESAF
UniProt P42330: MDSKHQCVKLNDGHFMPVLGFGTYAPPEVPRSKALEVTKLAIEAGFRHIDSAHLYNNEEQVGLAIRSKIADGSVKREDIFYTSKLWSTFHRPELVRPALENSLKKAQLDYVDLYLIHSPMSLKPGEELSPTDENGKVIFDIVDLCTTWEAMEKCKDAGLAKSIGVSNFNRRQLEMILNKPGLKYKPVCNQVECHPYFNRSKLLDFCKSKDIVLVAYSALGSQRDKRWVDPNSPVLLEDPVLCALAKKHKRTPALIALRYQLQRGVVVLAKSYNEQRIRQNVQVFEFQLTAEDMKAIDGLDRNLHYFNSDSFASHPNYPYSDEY
UniProt P54886: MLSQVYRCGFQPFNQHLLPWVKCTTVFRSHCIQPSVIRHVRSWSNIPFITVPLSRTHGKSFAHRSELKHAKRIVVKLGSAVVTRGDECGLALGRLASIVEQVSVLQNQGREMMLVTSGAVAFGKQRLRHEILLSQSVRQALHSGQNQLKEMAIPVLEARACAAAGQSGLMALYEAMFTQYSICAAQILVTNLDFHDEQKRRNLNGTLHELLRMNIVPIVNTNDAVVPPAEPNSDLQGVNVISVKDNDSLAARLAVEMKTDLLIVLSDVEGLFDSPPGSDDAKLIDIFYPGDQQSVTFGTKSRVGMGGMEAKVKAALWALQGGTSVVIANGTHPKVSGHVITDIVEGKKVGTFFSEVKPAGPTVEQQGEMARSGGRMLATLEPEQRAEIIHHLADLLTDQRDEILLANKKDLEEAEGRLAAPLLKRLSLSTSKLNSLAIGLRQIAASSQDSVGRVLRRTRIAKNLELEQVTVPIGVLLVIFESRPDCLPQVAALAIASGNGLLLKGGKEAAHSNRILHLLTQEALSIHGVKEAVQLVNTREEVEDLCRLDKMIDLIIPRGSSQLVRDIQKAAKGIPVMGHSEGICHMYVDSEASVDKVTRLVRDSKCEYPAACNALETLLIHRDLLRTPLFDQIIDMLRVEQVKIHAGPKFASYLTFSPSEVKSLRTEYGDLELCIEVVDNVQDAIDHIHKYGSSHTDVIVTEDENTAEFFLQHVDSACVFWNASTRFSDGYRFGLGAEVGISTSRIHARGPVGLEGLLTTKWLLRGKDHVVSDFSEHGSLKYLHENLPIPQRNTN
UniProt Q9NRZ7: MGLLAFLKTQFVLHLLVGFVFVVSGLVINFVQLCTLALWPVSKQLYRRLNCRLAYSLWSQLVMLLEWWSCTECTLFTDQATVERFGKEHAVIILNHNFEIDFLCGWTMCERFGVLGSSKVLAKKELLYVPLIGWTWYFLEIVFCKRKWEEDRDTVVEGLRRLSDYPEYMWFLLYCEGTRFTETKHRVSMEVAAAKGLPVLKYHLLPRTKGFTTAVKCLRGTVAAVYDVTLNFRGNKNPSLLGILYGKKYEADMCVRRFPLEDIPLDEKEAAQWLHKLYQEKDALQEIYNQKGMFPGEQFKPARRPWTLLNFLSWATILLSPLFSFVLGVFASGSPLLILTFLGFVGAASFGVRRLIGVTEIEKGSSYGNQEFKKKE
UniProt Q9UEY8: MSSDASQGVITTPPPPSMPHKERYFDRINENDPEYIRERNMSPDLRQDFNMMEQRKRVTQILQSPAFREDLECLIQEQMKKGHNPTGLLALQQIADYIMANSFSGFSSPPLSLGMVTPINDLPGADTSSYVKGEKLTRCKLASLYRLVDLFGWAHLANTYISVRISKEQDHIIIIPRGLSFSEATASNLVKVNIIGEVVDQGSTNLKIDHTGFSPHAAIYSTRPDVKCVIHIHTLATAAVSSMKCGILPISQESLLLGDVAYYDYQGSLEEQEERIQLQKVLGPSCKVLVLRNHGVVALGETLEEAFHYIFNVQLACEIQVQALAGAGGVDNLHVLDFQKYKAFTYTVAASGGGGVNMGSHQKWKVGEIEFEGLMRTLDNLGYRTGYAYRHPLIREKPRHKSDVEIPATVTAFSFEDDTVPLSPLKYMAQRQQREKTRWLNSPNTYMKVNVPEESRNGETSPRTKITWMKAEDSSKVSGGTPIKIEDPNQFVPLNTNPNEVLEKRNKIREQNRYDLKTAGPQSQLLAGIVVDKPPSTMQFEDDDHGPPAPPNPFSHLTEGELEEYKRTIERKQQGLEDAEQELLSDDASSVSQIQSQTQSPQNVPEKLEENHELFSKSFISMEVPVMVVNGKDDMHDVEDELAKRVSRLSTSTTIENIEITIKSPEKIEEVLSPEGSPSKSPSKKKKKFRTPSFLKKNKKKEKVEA
UniProt Q9ULX6: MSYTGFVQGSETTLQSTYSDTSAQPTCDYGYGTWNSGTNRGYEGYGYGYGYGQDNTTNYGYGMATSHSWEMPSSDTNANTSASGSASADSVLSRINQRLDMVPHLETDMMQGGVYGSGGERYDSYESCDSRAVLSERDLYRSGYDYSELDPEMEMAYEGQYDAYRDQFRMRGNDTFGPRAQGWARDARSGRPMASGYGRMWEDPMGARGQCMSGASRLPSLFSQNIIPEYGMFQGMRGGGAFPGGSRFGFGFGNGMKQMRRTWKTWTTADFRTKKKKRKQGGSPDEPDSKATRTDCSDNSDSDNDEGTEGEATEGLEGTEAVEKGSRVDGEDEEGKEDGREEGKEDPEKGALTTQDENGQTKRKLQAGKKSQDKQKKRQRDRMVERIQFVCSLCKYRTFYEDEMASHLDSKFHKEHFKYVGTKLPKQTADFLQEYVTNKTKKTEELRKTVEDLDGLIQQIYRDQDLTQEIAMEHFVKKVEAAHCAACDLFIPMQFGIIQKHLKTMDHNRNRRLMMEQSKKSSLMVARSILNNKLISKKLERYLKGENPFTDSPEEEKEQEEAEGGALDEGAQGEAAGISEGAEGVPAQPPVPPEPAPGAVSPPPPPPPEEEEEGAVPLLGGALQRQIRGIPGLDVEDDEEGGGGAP
UniProt Q99943: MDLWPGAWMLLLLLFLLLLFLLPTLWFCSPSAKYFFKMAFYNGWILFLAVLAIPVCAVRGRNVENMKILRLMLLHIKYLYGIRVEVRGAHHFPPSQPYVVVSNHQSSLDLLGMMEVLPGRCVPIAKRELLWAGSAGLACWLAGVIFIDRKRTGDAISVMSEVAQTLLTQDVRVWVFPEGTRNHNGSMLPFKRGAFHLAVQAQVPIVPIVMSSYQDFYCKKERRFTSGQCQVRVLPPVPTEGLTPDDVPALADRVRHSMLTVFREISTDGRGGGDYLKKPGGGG

Legend:
Test in all cases: log2 fold change, soluble protein after heating vs DMSO (PISA); higher = thermal stabilisation; K562 cells, 10 uM, 30 min; active = over 0.2 and 3.5 SD of the protein, either way, in both replicates (recomputed)
[1] = compound: CC1=C(C=C(C=C1)NC(=O)C2=CC(=CC=C2)C(C)(C)C#N)NC3=CC4=C(C=C3)N=CN(C4=O)C
In short: (§1)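 Values are thermal stability changes relative to control samples and are taken from duplicates. They are stated as log2 fold changes. Before quantification by TMTpro 16plex LC-MS/MS with equalised channel sums, K562 cells at 2×10^6 cells/mL were treated with 10 μM compound for 30 min, heated in aliquots for 3 min across 48°C-58°C, pooled, extracted in PBS with 0.5% NP-40 at 4°C, and centrifuged at 21,000xg for 90 min to give the soluble supernatant.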

[2] = compound: CC1=C(C=C(C=C1)NC(=O)C2=CC(=CC=C2)N(C)C)NC(=O)C3=CC=C(C=C3)O
In short: as §1

[3] = compound: CC1=CC=C(C=C1)SC2=C3C=C(SC3=CN=C2)C(=O)N
In short: as §1

[4] = compound: CC1=NC(=CC=C1)C2=C(N=C(N2)C(C)(C)C)C3=CC4=NC=CN=C4C=C3
In short: as §1

Nexturastat A = compound: CCCCN(Cc1ccc(C(=O)NO)cc1)C(=O)Nc1ccccc1 [Nexturastat A]
In short: as §1

vemurafenib = compound: CCCS(=O)(=O)Nc1ccc(F)c(C(=O)c2c[nH]c3ncc(-c4ccc(Cl)cc4)cc23)c1F [vemurafenib]
In short: as §1

[5] = compound: CCCS(=O)(=O)Nc1ccc(F)c(C(=O)c2c[nH]c3ncc(Cl)cc23)c1F
In short: as §1

[6] = compound: CCCc1cc(C)[nH]c(=O)c1CNC(=O)c1cc(-c2ccnc(N3CCN(C)CC3)c2)cc2c1cnn2C(C)C
In short: as §1

givinostat = compound: CCN(CC)Cc1ccc2cc(COC(=O)Nc3ccc(C(=O)NO)cc3)ccc2c1 [givinostat]
In short: as §1

barasertib = compound: CCN(CCCOc1ccc2c(Nc3cc(CC(=O)Nc4cccc(F)c4)[nH]n3)ncnc2c1)CCOP(=O)(O)O [barasertib]
In short: as §1

[7] = compound: CC[C@@H]1C(=O)N(C)c2cnc(Nc3ccc(C(=O)NC4CCN(C)CC4)cc3OC)nc2N1C1CCCC1
In short: as §1

volasertib = compound: CC[C@@H]1C(=O)N(C)c2cnc(Nc3ccc(C(=O)N[C@H]4CC[C@H](N5CCN(CC6CC6)CC5)CC4)cc3OC)nc2N1C(C)C [volasertib]
In short: as §1

[8] = compound: CC[C@H](C)N1C=C(C2=C(C=C(C=C21)C3=CN=C(C=C3)N4CCNCC4)C(=O)NCC5=C(C=C(NC5=O)C)C)C
In short: as §1

epoxomicin = compound: CC[C@H](C)[C@@H](C(=O)N[C@@H]([C@@H](C)O)C(=O)N[C@@H](CC(C)C)C(=O)[C@]1(CO1)C)NC(=O)[C@H]([C@@H](C)CC)N(C)C(=O)C [epoxomicin]
In short: as §1

[9] = compound: CCn1cc(-c2ccnc3[nH]c(-c4cccc(CN(C)C)c4)cc23)c(-c2ccc(NC(=O)N(C)C)cc2)n1
In short: as §1

[10] = compound: CN(C)CC(=O)Nc1ccc2[nH]c(=O)c3ccccc3c2c1
In short: as §1

[11] = compound: CN1C2=C(C3=C1C(=O)N(N=C3)CC4=CC(=CC=C4)N)SC(=C2)S(=O)C
In short: as §1

[12] = compound: CN1CCC(CNc2ccc3ncc(-c4cccc(OC(F)(F)F)c4)n3n2)CC1
In short: as §1

[13] = compound: CCn1c(C(=O)N(C2CC2)C2CC2)cc2c3c(ncn3C)c(Nc3cc(C)n(C)n3)nc21
In short: as §1

Measured: log2 fold change

AGO1 (UniProt Q9UL18)
inactive: [1] -0.213 | [2] -0.021 | [3] -0.025 | [4] 0.193 | Nexturastat A 0.084 | vemurafenib -0.023 | [5] -0.006 | [6] -0.111 | givinostat 0.071 | barasertib -0.064 | [7] 0.215 | volasertib 0.124 | [8] -0.1 | epoxomicin -0.148 | [9] 0.032 | [10] 0.098 | [11] 0.14 | [12] -0.151

AMD1 (UniProt P17707)
inactive: [1] 0.013 | [2] -0.142 | [3] 0.049 | [4] 0.078 | Nexturastat A -0.048 | vemurafenib -0.126 | [5] 0.041 | [6] -0.027 | givinostat 0.07 | barasertib 0.016 | [7] 0.061 | volasertib -0.098 | [8] 0.099 | epoxomicin 0.057 | [9] -0.033 | [10] -0.101 | [12] -0.091

AKAP8 (UniProt O43823)
inactive: [1] -0.082 | [2] 0.029 | [3] -0.03 | [4] -0.009 | vemurafenib -0.062 | [5] -0.05 | [6] -0.034 | givinostat -0.027 | barasertib 0.024 | [7] 0.069 | [8] -0.017 | epoxomicin 0.003 | [9] 0.026 | [10] -0.03 | [11] 0 | [12] -0.131
active: Nexturastat A 0.313 | volasertib -0.268

AKT1 (UniProt P31749)
inactive: [1] 0.118 | [2] -0.105 | [3] -0.035 | [4] 0.019 | Nexturastat A 0.145 | vemurafenib -0.227 | [5] 0.008 | [6] 0.049 | givinostat 0.133 | barasertib -0.03 | [7] 0 | volasertib -0.503 | [8] 0.068 | epoxomicin 0.158 | [9] -0.08 | [10] 0.133 | [11] 0.107 | [12] 0.222

ALG3 (UniProt Q92685)
active: [4] 0.376
inactive: [1] 0.108 | [2] 0.002 | [3] 0.113 | Nexturastat A 0.008 | vemurafenib -0.076 | [5] 0.123 | [6] -0.079 | givinostat -0.09 | barasertib 0 | [7] 0.005 | volasertib -0.164 | [8] 0.02 | epoxomicin 0.039 | [9] -0.037 | [10] -0.002 | [11] -0.028 | [12] 0.033

ALKBH5 (UniProt Q6P6C2)
inactive: [1] -0.12 | [2] -0.017 | [3] -0.046 | [4] -0.031 | Nexturastat A -0.068 | vemurafenib -0.071 | [5] -0.09 | [6] 0.162 | givinostat 0.092 | barasertib -0.023 | [7] 0.08 | volasertib 0.109 | [8] 0.01 | epoxomicin -0.033 | [9] -0.058 | [10] -0.058 | [11] -0.011 | [12] 0.041

AHCYL1 (UniProt O43865)
inactive: [1] -0.103 | [2] 0.003 | [3] -0.061 | [4] 0.011 | Nexturastat A 0.014 | vemurafenib -0.029 | [5] -0.015 | [6] -0.039 | givinostat -0.026 | barasertib -0.036 | [7] 0.021 | volasertib 0.036 | [8] -0.099 | epoxomicin -0.007 | [9] -0.097 | [10] 0.018 | [11] -0.115 | [12] -0.063

AKIRIN2 (UniProt Q53H80)
inactive: [1] 0.106 | [2] -0.056 | [3] 0.037 | [4] -0.083 | Nexturastat A 0.261 | vemurafenib -0.021 | [5] -0.137 | [6] -0.18 | givinostat 0.107 | [7] 0.008 | volasertib 0.175 | [8] 0.023 | epoxomicin 0.074 | [13] -0.048 | [9] 0.035 | [10] -0.053 | [11] -0.072 | [12] -0.085

ADK (UniProt P55263)
inactive: [1] 0.03 | [2] -0.027 | [3] 0 | [4] -0.011 | Nexturastat A -0.04 | vemurafenib -0.013 | [5] -0.046 | [6] 0.106 | givinostat -0.076 | barasertib -0.026 | [7] 0.338 | volasertib 0.359 | [8] -0.095 | epoxomicin -0.011 | [9] -0.026 | [10] -0.018 | [11] -0.085 | [12] 0.184

ALG11 (UniProt Q2TAA5)
inactive: [1] 0.006 | [2] -0.018 | [3] -0.041 | [4] 0.013 | Nexturastat A -0.004 | vemurafenib 0.053 | [5] 0.019 | [6] -0.04 | givinostat 0 | barasertib 0.043 | [7] -0.034 | volasertib -0.17 | [8] 0.126 | epoxomicin 0.038 | [9] 0.006 | [10] 0.018 | [11] -0.109 | [12] 0.042

AHSA1 (UniProt O95433)
inactive: [1] -0.014 | [2] 0.006 | [3] 0 | [4] 0.062 | Nexturastat A -0.019 | vemurafenib 0.029 | [5] 0.036 | [6] -0.024 | givinostat -0.015 | barasertib 0.027 | [7] -0.085 | [8] 0.038 | epoxomicin 0.023 | [9] -0.052 | [10] 0 | [11] -0.06 | [12] 0.038
active: volasertib -0.228

ALDH9A1 isoform 3 (UniProt P49189)
inactive: [1] 0.01 | [2] 0.012 | [3] 0.03 | [4] 0.01 | Nexturastat A -0.049 | vemurafenib 0.006 | [5] 0.006 | [6] -0.019 | givinostat -0.005 | barasertib 0.01 | [7] 0 | volasertib -0.003 | [8] -0.048 | epoxomicin 0.011 | [9] -0.025 | [10] -0.01 | [11] -0.065 | [12] -0.027

AKR1C3 (UniProt P42330)
inactive: [1] -0.034 | [2] -0.207 | [3] 0.268 | [4] -0.007 | Nexturastat A 0.022 | vemurafenib -0.032 | [5] 0.066 | [6] 0.289 | givinostat -0.003 | barasertib 0.014 | [7] 0.011 | volasertib 0.009 | [8] -0.01 | epoxomicin 0 | [9] -0.247 | [10] 0.067 | [11] -0.127 | [12] 0.214

ALDH18A1 (UniProt P54886)
inactive: [1] -0.179 | [2] 0.002 | [3] -0.04 | [4] 0.101 | Nexturastat A 0.035 | vemurafenib 0.068 | [5] 0.057 | [6] -0.137 | givinostat 0.141 | barasertib 0.214 | [7] -0.418 | [8] 0.092 | epoxomicin 0.1 | [9] -0.208 | [10] 0.041 | [11] 0.054 | [12] -0.054
active: volasertib -0.713

Two entries picked at random from those above:
AHSA1 (UniProt O95433)
inactive: [1] -0.014 | [2] 0.006 | [3] 0 | [4] 0.062 | Nexturastat A -0.019 | vemurafenib 0.029 | [5] 0.036 | [6] -0.024 | givinostat -0.015 | barasertib 0.027 | [7] -0.085 | [8] 0.038 | epoxomicin 0.023 | [9] -0.052 | [10] 0 | [11] -0.06 | [12] 0.038
active: volasertib -0.228

ALG11 (UniProt Q2TAA5)
inactive: [1] 0.006 | [2] -0.018 | [3] -0.041 | [4] 0.013 | Nexturastat A -0.004 | vemurafenib 0.053 | [5] 0.019 | [6] -0.04 | givinostat 0 | barasertib 0.043 | [7] -0.034 | volasertib -0.17 | [8] 0.126 | epoxomicin 0.038 | [9] 0.006 | [10] 0.018 | [11] -0.109 | [12] 0.042

(listing goes on)

AGPAT3 isoform 3 (UniProt Q9NRZ7)
inactive: [1] 0.019 | [2] 0 | [3] 0.016 | [4] 0.003 | Nexturastat A -0.076 | vemurafenib -0.001 | [5] 0.043 | [6] -0.039 | givinostat 0.008 | barasertib 0.057 | [7] -0.095 | [8] 0.017 | epoxomicin 0.02 | [9] -0.082 | [10] 0.012 | [11] -0.069 | [12] 0.001
active: volasertib -0.211

ADD3 (UniProt Q9UEY8)
inactive: [1] 0.024 | [2] 0.016 | [3] -0.015 | [4] -0.003 | Nexturastat A 0.021 | vemurafenib -0.021 | [5] 0.006 | [6] -0.013 | givinostat -0.043 | barasertib -0.01 | [7] 0.098 | volasertib 0.056 | [8] -0.024 | epoxomicin 0.014 | [9] 0.054 | [10] -0.03 | [11] -0.056 | [12] -0.023

AKAP8L (UniProt Q9ULX6)
active: volasertib -0.394
inactive: [1] -0.124 | [2] -0.007 | [3] -0.092 | [4] 0.005 | Nexturastat A 0.054 | vemurafenib 0.069 | [5] 0.067 | [6] 0.02 | givinostat 0.004 | barasertib 0.047 | [7] -0.14 | [8] 0.059 | epoxomicin 0.072 | [9] -0.039 | [10] 0.043 | [11] 0.171 | [12] -0.25

AGPAT1 (UniProt Q99943)
inactive: [1] -0.037 | [2] -0.029 | [3] -0.014 | [4] -0.03 | Nexturastat A -0.052 | vemurafenib 0.017 | [5] -0.004 | [6] 0.004 | givinostat 0.005 | barasertib 0.047 | [7] -0.032 | [8] 0.015 | epoxomicin -0.056 | [9] -0.006 | [10] 0.032 | [11] -0.102
active: volasertib -0.243 | [12] 0.315
